From publication PMC9599757, “Leveraging the Structure of DNAJA1 to Discover Novel Potential Pancreatic Cancer Therapies” (Biomolecules, 2022)

Sequences of proteins named here, by UniProt entry; tags and fusion partners are left off. Residues count along the entry.
UniProt P00367, residues 54-558: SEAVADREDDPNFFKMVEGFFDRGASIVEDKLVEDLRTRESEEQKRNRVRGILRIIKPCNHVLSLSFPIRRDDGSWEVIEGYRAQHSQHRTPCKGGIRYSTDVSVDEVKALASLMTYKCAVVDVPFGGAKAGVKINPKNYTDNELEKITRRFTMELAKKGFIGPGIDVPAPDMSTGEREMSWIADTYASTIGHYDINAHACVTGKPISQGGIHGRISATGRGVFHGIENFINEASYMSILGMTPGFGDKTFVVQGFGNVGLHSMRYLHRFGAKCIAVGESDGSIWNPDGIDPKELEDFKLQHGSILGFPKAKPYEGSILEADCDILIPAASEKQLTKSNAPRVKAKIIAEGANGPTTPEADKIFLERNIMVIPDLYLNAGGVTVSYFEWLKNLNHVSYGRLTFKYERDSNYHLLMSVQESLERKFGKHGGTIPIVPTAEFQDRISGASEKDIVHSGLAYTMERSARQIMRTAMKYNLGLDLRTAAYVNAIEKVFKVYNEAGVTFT
UniProt P02545, residues 1-646: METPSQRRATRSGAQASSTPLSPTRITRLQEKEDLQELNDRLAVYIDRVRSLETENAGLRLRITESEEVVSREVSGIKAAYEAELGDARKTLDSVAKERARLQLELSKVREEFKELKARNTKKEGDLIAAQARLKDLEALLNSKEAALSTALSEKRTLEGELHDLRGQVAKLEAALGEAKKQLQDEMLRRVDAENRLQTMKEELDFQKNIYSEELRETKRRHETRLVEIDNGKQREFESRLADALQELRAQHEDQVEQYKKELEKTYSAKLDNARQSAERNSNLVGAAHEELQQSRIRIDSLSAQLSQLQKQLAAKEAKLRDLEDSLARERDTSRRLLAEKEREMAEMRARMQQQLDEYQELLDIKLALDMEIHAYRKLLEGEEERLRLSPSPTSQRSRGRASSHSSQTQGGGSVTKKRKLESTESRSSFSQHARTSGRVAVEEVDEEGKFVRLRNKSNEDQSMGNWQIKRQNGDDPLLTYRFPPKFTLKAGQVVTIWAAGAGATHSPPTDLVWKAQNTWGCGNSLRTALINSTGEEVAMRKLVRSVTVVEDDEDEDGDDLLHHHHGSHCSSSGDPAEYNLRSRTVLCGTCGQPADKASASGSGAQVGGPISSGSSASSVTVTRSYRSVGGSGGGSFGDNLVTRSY
UniProt P14136: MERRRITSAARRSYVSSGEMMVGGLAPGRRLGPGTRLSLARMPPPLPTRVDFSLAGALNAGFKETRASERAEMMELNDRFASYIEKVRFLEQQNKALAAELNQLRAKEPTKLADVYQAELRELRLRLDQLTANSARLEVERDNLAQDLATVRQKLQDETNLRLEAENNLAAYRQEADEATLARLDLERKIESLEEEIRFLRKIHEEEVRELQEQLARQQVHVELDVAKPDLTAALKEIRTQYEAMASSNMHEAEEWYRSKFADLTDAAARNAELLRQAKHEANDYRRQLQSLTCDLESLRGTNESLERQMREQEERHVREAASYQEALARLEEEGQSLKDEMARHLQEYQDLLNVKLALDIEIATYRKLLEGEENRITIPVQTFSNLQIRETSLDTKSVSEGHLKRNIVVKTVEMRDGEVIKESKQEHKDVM

B1: ADP/ATP translocase 3 (protein, UniProt P12236 1-298)
chain: MTEQAISFAKDFLAGGIAAAISKTAVAPIERVKLLLQVQHASKQIAADKQYKGIVDCIVRIPKEQGVLSFWRGNLANVIRYFPTQALNFAFKDKYKQIFLGGVDKHTQFWRYFAGNLASGGAAGATSLCFVYPLDFARTRLAADVGKSGTEREFRGLGDCLVKITKSDGIRGLYQGFSVSVQGIIIYRAAYFGVYDTAKGMLPDPKNTHIVVSWMIAQTVTAVAGVVSYPFDTVRRRMMMQSGRKGADIMYTGTVDCWRKIFRDEGGKAFFKGAWSNVLRGMGGAFVLVLYDELKKVI
B2: Non-structural maintenance of chromosomes element 1 homolog (protein, UniProt Q8WV22 1-266)
chain: MQGSTRRMGVMTDVHRRFLQLLMTHGVLEEWDVKRLQTHCYKVHDRNATVDKLEDFINNINSVLESLYIEIKRGVTEDDGRPIYALVNLATTSISKMATDFAENELDLFRKALELIIDSETGFASSTNILNLVDQLKGKKMRKKEAEQVLQKFVQNKWLIEKEGEFTLHGRAILEMEQYIRETYPDAVKICNICHSLLIQGQSCETCGIRMHLPCVAKYFQSNAEPRCPHCNDYWPHEIPKVFDPEKERESGVLKSNKKSLRSRQH
B3: Non-POU domain-containing octamer-binding protein (protein, UniProt Q15233 1-471)
chain: MQSNKTFNLEKQNHTPRKHHQHHHQQQHHQQQQQQPPPPPIPANGQQASSQNEGLTIDLKNFRKPGEKTFTQRSRLFVGNLPPDITEEEMRKLFEKYGKAGEVFIHKDKGFGFIRLETRTLAEIAKVELDNMPLRGKQLRVRFACHSASLTVRNLPQYVSNELLEEAFSVFGQVERAVVIVDDRGRPSGKGIVEFSGKPAARKALDRCSEGSFLLTTFPRPVTVEPMDQLDDEEGLPEKLVIKNQQFHKEREQPPRFAQPGSFEYEYAMRWKALIEMEKQQQDQVDRNIKEAREKLEMEMEAARHEHQVMLMRQDLMRRQEELRRMEELHNQEVQKRKQLELRQEEERRRREEEMRRQQEEMMRRQQEGFKGTFPDAREQEIRMGQMAMGGAMGINNRGAMPPAPVPAGTPAPPGPATMMPDGTLGLTPPTTERFGQAATMEGIGAIGGTPPAFNRAAPGAEFAPNKRRRY

Target: DNAJA1-107 (residues 1 to 107 of human DnaJ homolog subfamily A member 1) (human) (UniProt P31689)
Assay: affinity purification with mass spectrometry; Pierce His Protein Interaction Pull-Down Kit: 6x-His DNAJA1-107 immobilised on HisPur cobalt resin, incubated 2 h with clarified RIPA lysate of MIA PaCa-2 cells; co-eluted, SDS-PAGE, bands excised, trypsin digested, LC-MS; control: resin only; only the target purified

Row | binding | Molecule
1 | binds | Creatine kinase U-type, mitochondrial (from UniProt P12532 40-417)
2 | binds | Glutamate dehydrogenase 1, mitochondrial (from UniProt P00367 54-558)
3 | binds | Prelamin-A/C (from UniProt P02545 1-646)
4 | binds | Glial fibrillary acidic protein (from UniProt P14136 1-432)
5 | binds | B1
6 | binds | B2
7 | binds | B3

Results are given in words; binding and its absence hold for the method and conditions named. Binding seen in cells or lysates may run through a third protein. Here binding means that the protein was enriched with, or labelled near, the bait; the list need not be complete.
